The other results are listed elsewhere or left out.

By UniProt entry, the sequences of proteins in these tests, tags left out. Where a name states a change or a piece, a line headed by the entry shows the natural chain unless it says otherwise.
UniProt Q9C0E8: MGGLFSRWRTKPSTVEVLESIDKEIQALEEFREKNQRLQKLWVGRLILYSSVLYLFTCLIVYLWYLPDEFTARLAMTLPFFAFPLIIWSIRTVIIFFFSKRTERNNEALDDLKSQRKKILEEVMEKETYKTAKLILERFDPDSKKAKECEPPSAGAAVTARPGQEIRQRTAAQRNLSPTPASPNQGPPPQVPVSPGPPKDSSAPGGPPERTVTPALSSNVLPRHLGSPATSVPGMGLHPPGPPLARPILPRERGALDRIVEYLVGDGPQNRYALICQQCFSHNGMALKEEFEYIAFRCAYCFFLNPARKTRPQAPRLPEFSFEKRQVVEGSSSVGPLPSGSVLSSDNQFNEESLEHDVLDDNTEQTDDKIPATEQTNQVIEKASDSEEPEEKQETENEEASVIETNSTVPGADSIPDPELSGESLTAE
UniProt P48357: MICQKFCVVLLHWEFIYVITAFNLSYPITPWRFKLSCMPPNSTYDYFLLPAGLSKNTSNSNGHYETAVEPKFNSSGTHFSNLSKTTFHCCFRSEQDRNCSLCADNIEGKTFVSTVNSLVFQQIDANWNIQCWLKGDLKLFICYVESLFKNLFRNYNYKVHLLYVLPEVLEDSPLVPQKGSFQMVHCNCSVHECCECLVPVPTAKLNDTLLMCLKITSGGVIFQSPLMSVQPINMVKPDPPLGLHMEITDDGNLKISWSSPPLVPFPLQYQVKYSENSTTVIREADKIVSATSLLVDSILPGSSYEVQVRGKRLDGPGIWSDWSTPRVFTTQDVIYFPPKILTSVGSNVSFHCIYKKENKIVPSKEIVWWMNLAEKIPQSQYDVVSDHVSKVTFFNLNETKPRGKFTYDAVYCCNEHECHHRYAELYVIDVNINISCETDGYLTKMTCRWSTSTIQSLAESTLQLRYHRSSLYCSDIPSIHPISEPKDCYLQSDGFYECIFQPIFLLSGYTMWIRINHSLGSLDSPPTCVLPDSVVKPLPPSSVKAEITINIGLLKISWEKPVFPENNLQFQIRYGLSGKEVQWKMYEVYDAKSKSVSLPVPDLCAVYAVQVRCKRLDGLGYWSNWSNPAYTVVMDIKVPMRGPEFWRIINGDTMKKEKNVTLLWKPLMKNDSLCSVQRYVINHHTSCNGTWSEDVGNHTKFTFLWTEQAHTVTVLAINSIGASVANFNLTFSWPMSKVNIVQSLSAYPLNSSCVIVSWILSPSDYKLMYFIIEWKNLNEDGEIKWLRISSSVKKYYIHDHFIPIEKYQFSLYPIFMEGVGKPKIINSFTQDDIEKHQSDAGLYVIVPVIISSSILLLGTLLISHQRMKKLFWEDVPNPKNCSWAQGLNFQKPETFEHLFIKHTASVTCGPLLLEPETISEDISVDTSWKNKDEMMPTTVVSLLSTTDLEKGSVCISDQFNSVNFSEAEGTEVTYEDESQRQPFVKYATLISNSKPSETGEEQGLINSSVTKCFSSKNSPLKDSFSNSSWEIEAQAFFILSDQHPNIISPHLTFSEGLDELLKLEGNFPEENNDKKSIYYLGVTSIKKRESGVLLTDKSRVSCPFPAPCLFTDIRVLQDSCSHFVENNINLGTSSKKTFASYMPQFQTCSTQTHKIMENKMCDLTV
UniProt Q32MZ4: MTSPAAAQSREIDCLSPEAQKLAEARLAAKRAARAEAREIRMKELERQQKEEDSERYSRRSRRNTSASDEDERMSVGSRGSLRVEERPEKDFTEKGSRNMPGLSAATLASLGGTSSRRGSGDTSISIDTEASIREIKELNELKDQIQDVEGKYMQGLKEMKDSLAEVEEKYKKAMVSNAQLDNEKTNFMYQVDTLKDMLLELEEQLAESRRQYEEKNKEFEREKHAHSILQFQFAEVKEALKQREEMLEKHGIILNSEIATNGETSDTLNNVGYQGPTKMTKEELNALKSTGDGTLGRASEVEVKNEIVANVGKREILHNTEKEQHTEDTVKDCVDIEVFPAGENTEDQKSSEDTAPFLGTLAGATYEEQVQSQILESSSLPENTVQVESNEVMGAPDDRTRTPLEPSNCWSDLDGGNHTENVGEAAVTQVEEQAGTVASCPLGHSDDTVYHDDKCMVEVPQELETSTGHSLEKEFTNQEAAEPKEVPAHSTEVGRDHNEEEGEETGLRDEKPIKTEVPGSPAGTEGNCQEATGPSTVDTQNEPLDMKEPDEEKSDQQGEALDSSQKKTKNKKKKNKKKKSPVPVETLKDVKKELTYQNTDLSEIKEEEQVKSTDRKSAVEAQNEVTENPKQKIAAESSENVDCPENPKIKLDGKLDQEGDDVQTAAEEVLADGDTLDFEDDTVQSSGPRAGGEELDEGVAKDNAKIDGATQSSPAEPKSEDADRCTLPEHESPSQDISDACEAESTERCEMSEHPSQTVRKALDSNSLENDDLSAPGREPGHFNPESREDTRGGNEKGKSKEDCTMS
UniProt Q8NF37: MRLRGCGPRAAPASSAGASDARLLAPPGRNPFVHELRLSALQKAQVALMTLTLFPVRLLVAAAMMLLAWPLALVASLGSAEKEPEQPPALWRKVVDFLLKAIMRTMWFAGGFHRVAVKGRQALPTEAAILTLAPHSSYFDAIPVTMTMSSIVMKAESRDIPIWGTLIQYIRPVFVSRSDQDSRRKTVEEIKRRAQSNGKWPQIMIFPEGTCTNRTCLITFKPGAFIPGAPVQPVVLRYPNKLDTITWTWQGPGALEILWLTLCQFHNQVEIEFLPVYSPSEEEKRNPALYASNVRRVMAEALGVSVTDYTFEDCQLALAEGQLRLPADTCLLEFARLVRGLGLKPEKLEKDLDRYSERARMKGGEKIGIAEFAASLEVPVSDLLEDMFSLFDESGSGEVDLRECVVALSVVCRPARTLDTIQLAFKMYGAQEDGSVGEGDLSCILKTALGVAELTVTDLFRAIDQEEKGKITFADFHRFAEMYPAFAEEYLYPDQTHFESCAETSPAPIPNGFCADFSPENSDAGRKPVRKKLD
UniProt P17931, whole entry, looked up: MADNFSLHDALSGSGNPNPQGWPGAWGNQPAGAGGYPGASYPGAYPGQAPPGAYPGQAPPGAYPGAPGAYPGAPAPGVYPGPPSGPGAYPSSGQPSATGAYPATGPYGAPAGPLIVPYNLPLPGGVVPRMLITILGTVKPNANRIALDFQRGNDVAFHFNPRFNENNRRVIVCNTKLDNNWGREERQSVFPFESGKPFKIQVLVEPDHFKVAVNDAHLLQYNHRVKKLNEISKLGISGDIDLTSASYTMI
UniProt Q7L1W4: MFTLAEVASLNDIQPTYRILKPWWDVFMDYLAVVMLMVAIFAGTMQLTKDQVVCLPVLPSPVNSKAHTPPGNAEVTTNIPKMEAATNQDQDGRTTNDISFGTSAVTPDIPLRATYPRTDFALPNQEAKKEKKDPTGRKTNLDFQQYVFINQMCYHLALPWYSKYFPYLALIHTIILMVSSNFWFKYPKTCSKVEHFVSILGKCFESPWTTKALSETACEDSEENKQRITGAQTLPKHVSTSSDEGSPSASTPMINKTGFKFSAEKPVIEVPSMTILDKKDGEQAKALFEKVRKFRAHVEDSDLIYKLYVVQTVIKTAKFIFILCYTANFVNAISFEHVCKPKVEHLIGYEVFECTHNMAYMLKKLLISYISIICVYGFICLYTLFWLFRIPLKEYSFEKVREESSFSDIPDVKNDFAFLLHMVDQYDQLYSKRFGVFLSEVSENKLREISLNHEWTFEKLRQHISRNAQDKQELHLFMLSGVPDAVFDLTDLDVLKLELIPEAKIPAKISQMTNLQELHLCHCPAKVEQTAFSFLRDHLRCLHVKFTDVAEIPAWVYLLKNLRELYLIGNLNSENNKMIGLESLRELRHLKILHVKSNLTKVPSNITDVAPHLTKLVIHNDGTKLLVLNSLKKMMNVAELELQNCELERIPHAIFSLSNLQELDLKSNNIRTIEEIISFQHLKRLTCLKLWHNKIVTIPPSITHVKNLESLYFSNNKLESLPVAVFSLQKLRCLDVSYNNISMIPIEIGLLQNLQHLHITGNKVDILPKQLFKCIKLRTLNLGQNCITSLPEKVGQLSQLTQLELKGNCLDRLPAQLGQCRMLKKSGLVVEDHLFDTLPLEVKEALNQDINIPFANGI
UniProt P25791: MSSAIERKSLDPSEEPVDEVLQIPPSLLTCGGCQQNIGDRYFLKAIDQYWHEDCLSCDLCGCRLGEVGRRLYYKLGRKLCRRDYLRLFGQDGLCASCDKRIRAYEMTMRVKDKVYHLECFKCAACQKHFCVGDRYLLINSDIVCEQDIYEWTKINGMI
UniProt Q9H008: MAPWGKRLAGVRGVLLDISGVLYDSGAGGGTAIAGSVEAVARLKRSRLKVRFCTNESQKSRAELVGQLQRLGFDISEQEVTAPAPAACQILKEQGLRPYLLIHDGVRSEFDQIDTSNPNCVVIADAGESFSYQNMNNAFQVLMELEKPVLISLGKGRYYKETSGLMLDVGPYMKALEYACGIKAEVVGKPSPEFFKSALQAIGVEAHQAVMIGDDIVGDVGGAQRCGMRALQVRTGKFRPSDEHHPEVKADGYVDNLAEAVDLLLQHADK
UniProt Q9Y4W2: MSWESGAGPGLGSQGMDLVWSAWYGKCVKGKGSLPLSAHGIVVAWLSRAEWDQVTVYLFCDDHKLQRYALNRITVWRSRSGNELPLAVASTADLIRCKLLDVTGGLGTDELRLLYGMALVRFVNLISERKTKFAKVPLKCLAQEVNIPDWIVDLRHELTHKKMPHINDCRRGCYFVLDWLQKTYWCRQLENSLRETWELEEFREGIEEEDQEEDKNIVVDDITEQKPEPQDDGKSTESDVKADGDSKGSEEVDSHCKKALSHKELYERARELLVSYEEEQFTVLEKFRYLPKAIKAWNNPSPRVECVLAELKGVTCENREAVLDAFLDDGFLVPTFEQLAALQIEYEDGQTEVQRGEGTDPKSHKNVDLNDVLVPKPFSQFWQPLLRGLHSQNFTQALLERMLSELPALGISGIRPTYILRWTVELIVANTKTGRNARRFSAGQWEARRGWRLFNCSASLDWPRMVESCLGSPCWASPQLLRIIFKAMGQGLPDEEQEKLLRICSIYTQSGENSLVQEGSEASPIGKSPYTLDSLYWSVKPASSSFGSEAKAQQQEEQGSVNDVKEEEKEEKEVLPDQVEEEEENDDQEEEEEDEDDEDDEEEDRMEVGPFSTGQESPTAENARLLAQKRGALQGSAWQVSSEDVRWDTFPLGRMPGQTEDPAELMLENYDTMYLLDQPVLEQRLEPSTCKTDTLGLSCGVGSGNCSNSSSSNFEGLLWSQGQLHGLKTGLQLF
UniProt Q9NUP9: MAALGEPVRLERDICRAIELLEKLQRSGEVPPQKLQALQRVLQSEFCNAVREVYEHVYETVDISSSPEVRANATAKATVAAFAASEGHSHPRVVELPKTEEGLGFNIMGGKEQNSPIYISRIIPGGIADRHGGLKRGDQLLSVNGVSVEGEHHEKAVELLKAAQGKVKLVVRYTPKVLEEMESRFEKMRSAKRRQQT
UniProt Q9Y4Z0: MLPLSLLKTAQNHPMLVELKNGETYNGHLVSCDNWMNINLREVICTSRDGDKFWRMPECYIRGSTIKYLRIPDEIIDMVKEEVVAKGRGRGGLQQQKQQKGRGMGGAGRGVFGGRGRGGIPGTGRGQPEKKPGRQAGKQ
UniProt Q6P9F7: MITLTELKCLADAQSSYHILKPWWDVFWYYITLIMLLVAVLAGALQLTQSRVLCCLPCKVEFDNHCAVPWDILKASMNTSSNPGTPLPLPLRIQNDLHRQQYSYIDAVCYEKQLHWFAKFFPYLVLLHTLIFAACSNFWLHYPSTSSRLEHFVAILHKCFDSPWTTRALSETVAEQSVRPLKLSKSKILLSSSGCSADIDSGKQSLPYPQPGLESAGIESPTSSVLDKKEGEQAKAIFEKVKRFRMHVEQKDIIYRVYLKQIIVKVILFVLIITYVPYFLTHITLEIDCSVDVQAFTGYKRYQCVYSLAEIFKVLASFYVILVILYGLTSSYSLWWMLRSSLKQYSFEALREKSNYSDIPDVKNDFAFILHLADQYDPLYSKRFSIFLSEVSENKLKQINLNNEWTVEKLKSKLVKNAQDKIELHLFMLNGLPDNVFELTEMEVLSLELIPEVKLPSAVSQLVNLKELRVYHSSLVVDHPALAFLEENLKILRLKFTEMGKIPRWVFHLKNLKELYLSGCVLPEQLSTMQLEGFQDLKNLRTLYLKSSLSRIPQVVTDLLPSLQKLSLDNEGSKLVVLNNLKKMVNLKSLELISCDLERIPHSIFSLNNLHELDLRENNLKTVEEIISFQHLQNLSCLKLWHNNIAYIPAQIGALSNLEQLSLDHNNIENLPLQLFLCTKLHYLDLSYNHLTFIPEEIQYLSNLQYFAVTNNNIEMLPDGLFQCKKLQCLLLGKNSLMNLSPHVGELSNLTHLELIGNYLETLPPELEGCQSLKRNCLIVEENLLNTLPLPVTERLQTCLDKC

Assay in all cases: log2 fold change, soluble protein after heating vs DMSO (PISA); higher = thermal stabilisation; K562 lysate, 10 uM; active = over 0.2 and 3.5 SD of the protein, either way, in both replicates (recomputed)
Compound in one assay: CS(=O)(=O)CCNCc1ccc(-c2ccc3ncnc(Nc4ccc(OCc5cccc(F)c5)c(Cl)c4)c3c2)o1 [lapatinib]
An outline of the steps: (§1)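 The values are log-two fold changes in thermal stability compared with solvent controls and come from duplicates. They were obtained by TMTpro 16plex LC-MS/MS, with channel sums equalised, on the supernatant after 21,000xg for 90 min. That supernatant came from crude K562 extract at 1 mg/mL protein treated with 10 μM compound for 30 min, heated for 3 min across 48°C-58°C, pooled and brought to 0.5% NP-40 at 4°C.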

Compound in a further assay: CS(=O)(=O)N1CCN(Cc2cc3nc(-c4cccc5[nH]ncc45)nc(N4CCOCC4)c3s2)CC1 [pictilisib]
An outline of the steps: as §1

Compound in the next assay: C[C@@H](Oc1cc(-c2cnn(C3CCNCC3)c2)cnc1N)c1c(Cl)ccc(F)c1Cl [crizotinib]
The procedure, abridged: as §1

Compound in assay [1]: C[C@H](C1=CC=C(C=C1)C(=O)NC2=C3C=CNC3=NC=C2)N
An outline of the steps: as §1

Compound in a further assay: C[C@H](Nc1ncnc2nc[nH]c12)c1cc2cccc(Cl)c2c(=O)n1-c1ccccc1 [duvelisib]
The procedure, abridged:
as §1

Compound in a further assay: Cc1cc(Nc2cc(CN3CCOCC3)c3nc(C)c(Cc4ccc(Cl)cc4F)n3n2)n[nH]1 [gandotinib]
An outline of the steps: as §1

Compound in the next assay: Cc1cc(Nc2cc(N3CCN(C)CC3)nc(Sc3ccc(NC(=O)C4CC4)cc3)n2)n[nH]1 [tozasertib]
An outline of the steps:
as §1

Compound in another assay: Cc1ccc(-n2nc(C(C)(C)C)cc2NC(=O)Nc2ccc(OCCN3CCOCC3)c3ccccc23)cc1 [doramapimod]
An outline of the steps:
as §1

Compound in another assay: Cc1ccc(NC(=O)c2ccc(CN3CC[C@H](N(C)C)C3)c(C(F)(F)F)c2)cc1Nc1nccc(-c2cncnc2)n1 [bafetinib]
The procedure, abridged:
as §1

Compound in assay [2]: Cc1cccc(CC(=O)N2CCc3c2ccc(-c2cn(C)c4ncnc(N)c24)c3F)n1
An outline of the steps: as §1

In the case of LNPK (UniProt Q9C0E8), the log2 fold change with lapatinib was inactive: -0.033; with pictilisib, inactive: 0.021; in the assay with crizotinib, inactive: 0.005; in assay [1], inactive: -0.137; with duvelisib, inactive: 0.061; with gandotinib it was inactive: 0.029. Further, the log2 fold change in the assay with tozasertib was inactive: 0.013; with doramapimod, inactive: -0.047; with bafetinib, inactive: -0.024; in assay [2], inactive: 0.091.
Regarding LEPR (UniProt P48357), the log2 fold change in the assay with lapatinib is inactive: -0.019; in the assay with pictilisib, inactive: 0.009; with crizotinib, inactive: 0.065; in assay [1], inactive: -0.106; with duvelisib, inactive: -0.013; with gandotinib, inactive: 0.034. Also, the log2 fold change with tozasertib is inactive: 0.041; with doramapimod, inactive: -0.02; with bafetinib, inactive: 0.036; in assay [2], inactive: 0.1.
With LRRFIP1 (UniProt Q32MZ4), the log2 fold change in the assay with lapatinib was inactive: -0.001; with pictilisib, inactive: 0.001; with crizotinib, inactive: 0.03; in [1] it was inactive: -0.022; in the assay with duvelisib, inactive: 0.044; with gandotinib it was inactive: 0.06. The log2 fold change is inactive: 0.024 with tozasertib, inactive: -0.015 in the assay with doramapimod, inactive: -0.017 in the assay with bafetinib and inactive: 0.027 in assay [2].
Turning to LPCAT1 (UniProt Q8NF37), the log2 fold change with lapatinib is inactive: 0.005; with pictilisib, inactive: -0.034; with crizotinib, inactive: -0.031; in assay [1], inactive: -0.209; with duvelisib, inactive: -0.107; with gandotinib, inactive: 0.115. In addition, the log2 fold change is inactive: 0.006 with tozasertib, inactive: -0.048 with doramapimod, inactive: -0.072 with bafetinib and inactive: 0.078 in [2].
Consider LGALS3 (UniProt P17931), for which the log2 fold change was inactive: -0.044 in the assay with lapatinib; inactive: 0.227 with pictilisib; inactive: 0.016 with crizotinib; inactive: 0.312 in assay [1]; inactive: -0.367 with duvelisib; inactive: -0.038 with gandotinib. For the same target, the log2 fold change was inactive: -0.132 with tozasertib, inactive: 0.067 with doramapimod, inactive: -0.064 with bafetinib and inactive: -0.056 in assay [2].
With LRRC8D (UniProt Q7L1W4), the log2 fold change with lapatinib was inactive: -0.061; with pictilisib it was inactive: -0.029; in the assay with crizotinib, inactive: 0.004; in assay [1] it was inactive: -0.083; with duvelisib, inactive: 0.068; with gandotinib, inactive: -0.002. In addition, the log2 fold change with tozasertib is inactive: -0.053; with doramapimod, inactive: 0.008; with bafetinib it was inactive: -0.012; in assay [2], inactive: 0.105.
On to LMO2 isoform 3 (UniProt P25791), for which the log2 fold change in the assay with lapatinib was inactive: -0.057; with pictilisib, inactive: 0.085; in the assay with crizotinib, inactive: 0.006; in assay [1], inactive: -0.166; with duvelisib, inactive: -0.138; with gandotinib, inactive: 0.109. Moreover, the log2 fold change was inactive: 0.113 with tozasertib, inactive: 0.044 in the assay with doramapimod, inactive: -0.067 with bafetinib and inactive: -0.063 in [2].
In the case of LHPP (UniProt Q9H008), the log2 fold change with lapatinib was inactive: -0.045; with pictilisib, inactive: -0.05; with crizotinib, inactive: -0.015; in [1] it was inactive: -0.072; in the assay with duvelisib, inactive: 0.023; in the assay with gandotinib, inactive: 0.042. The log2 fold change with tozasertib was inactive: -0.101; with doramapimod, inactive: 0.009; with bafetinib it was inactive: 0.027; in assay [2] it was inactive: -0.03.
LIG4 (UniProt P49917): the log2 fold change in the assay with lapatinib is inactive: 0.028; with pictilisib, inactive: -0.245; with crizotinib, inactive: -0.035; in [1] it was inactive: -0.064; with duvelisib it was inactive: 0.022; with gandotinib it was inactive: -0.07. Also, the log2 fold change in the assay with tozasertib was inactive: -0.034; in the assay with doramapimod it was inactive: -0.037; with bafetinib it was inactive: -0.167; in assay [2], inactive: 0.073.
Turning to LAS1L (UniProt Q9Y4W2), the log2 fold change was inactive: -0.004 with lapatinib; inactive: -0.033 in the assay with pictilisib; inactive: -0.05 in the assay with crizotinib; inactive: -0.051 in [1]; inactive: -0.003 with duvelisib; inactive: 0.017 in the assay with gandotinib. Besides, the log2 fold change is inactive: 0.043 with tozasertib, inactive: 0.011 with doramapimod, inactive: -0.004 with bafetinib and active: 0.233 in [2].
Regarding LIN7C (UniProt Q9NUP9), the log2 fold change is inactive: -0.01 with lapatinib; inactive: 0 with pictilisib; inactive: 0.057 in the assay with crizotinib; inactive: -0.012 in assay [1]; inactive: 0 in the assay with duvelisib; inactive: -0.013 with gandotinib. Further, the log2 fold change with tozasertib is inactive: 0.032; in the assay with doramapimod, inactive: 0.029; with bafetinib, inactive: -0.004; in assay [2], inactive: 0.006.
With LSM4 (UniProt Q9Y4Z0), the log2 fold change with lapatinib is inactive: 0.02; with pictilisib, inactive: 0.013; in the assay with crizotinib it was inactive: 0.024; in [1], inactive: -0.019; with duvelisib, inactive: -0.002; with gandotinib it was inactive: 0.043. Moreover, the log2 fold change with tozasertib is inactive: -0.031; in the assay with doramapimod it was inactive: -0.023; with bafetinib it was inactive: 0.036; in assay [2], inactive: 0.043.
Regarding LRRC8B (UniProt Q6P9F7), the log2 fold change in the assay with lapatinib is inactive: -0.165; with pictilisib it was inactive: -0.088; with crizotinib it was inactive: -0.04; in [1], inactive: -0.125; with duvelisib, inactive: 0.095; with gandotinib, inactive: 0.053. In addition, the log2 fold change with tozasertib was inactive: 0.09; with doramapimod it was inactive: -0.001; with bafetinib it was inactive: 0.158; in assay [2], inactive: 0.026.

Source of the values: the supplement of paper PMC10849652.
